Measured values: paper PMC7826336
These are yes or no findings as the source states them, for the method shown.

Sequences of proteins named here, by UniProt entry; tags and fusion partners are left off. A change or cut given only in a name is not applied to a line headed by its entry.
UniProt P03952: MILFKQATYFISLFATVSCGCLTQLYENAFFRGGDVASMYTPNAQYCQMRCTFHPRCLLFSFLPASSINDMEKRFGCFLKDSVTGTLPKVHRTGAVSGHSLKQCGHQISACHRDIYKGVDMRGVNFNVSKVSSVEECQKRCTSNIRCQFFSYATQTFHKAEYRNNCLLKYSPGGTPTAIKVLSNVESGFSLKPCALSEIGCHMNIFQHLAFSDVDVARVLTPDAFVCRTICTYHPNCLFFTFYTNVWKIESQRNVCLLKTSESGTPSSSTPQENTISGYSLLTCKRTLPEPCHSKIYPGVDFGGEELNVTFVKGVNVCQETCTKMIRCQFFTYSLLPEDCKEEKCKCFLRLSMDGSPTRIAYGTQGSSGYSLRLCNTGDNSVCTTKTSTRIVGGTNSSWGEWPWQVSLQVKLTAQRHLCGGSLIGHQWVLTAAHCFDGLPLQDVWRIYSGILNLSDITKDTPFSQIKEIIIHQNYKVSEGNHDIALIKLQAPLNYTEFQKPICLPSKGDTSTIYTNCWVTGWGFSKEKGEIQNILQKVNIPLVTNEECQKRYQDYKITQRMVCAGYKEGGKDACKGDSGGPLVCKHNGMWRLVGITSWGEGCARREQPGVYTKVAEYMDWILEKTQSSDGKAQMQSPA
UniProt P00740: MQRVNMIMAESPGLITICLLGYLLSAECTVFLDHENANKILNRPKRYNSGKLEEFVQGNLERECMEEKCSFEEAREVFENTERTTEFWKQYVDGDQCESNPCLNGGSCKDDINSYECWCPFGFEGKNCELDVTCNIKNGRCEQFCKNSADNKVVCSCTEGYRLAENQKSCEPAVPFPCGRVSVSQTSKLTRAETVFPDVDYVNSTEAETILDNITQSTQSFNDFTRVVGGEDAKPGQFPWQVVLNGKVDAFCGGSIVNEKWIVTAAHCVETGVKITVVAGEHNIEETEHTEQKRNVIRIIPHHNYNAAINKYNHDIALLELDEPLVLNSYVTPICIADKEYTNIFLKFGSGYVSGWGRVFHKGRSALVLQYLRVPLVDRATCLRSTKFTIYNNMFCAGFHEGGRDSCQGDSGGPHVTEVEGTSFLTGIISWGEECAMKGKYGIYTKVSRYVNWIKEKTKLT

Biological target: kallikrein (PKa) (UniProt P03952)
Test: SPR; as a1, but analyte (FIX or FIXa, 250 nM) preincubated in one vessel with 250 nM HK before injection over immobilised PK or PKa; signal compared with HK alone; n = 1; both purified

activated Factor IX (FIXa) (from UniProt P00740 47-191; P00740 227-461) (enzyme)
binding: no binding (condition: preincubated with 250 nM HK)
